# The supplement of paper PMC4604168 (melanoma cell lines)
# Some of the results follow. Single values are uncertain, as repeats are few or missing.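 The apoptosis fraction was the count of cleaved-PARP antibody-stained nuclei relative to all DNA-stained nuclei, imaged in 1,536-well plates. Screening doses were set so most cells survived, and baseline and induced cleaved-PARP levels vary greatly across cell lines.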
# Tests used:
# Assay in all cases: cleaved PARP positive nuclei fraction relative to DMSO control; melanoma cells; higher = more apoptosis
# Conditions in all cases: library dose: low library concentration; 72 h
# A101D = test system: A101D
# A2058 = test system: A2058
# C32 = test system: C32
# CBRC008 = test system: CBRC008 (line from a melanoma biopsy)
# CBRC014 = test system: CBRC014 (line from a melanoma biopsy)
# CBRC016 = test system: CBRC016 (line from a melanoma biopsy)
# CBRC017 = test system: CBRC017 (line from a melanoma biopsy)
# COLO792 = test system: COLO792
# COLO800 = test system: COLO800
# COLO829 = test system: COLO829
# G361 = test system: G361
# IPC-298 = test system: IPC-298
# IST-MEL1 = test system: IST-MEL1
# LOXIMVI = test system: LOXIMVI
# A375 = test system: A375
# CBRC034 = test system: CBRC034 (line from a melanoma biopsy)
# MEL-HO = test system: MEL-HO
SMILES,cleaved PARP positive nuclei fraction (A101D) [%],cleaved PARP positive nuclei fraction (A2058) [%],cleaved PARP positive nuclei fraction (C32) [%],cleaved PARP positive nuclei fraction (CBRC008) [%],cleaved PARP positive nuclei fraction (CBRC014) [%],cleaved PARP positive nuclei fraction (CBRC016) [%],cleaved PARP positive nuclei fraction (CBRC017) [%],cleaved PARP positive nuclei fraction (COLO792) [%],cleaved PARP positive nuclei fraction (COLO800) [%],cleaved PARP positive nuclei fraction (COLO829) [%],cleaved PARP positive nuclei fraction (G361) [%],cleaved PARP positive nuclei fraction (IPC-298) [%],cleaved PARP positive nuclei fraction (IST-MEL1) [%],cleaved PARP positive nuclei fraction (LOXIMVI) [%],cleaved PARP positive nuclei fraction (A375) [%],cleaved PARP positive nuclei fraction (CBRC034) [%],cleaved PARP positive nuclei fraction (MEL-HO) [%]
"Cn1cnc2c(F)c(Nc3ccc(Br)cc3Cl)c(C(=O)NOCCO)cc21 [selumetinib] + COc1cc(N2CCC(N3CCN(C)CC3)CC2)ccc1Nc1ncc(Cl)c(Nc2ccccc2S(=O)(=O)C(C)C)n1 [NVP-TAE684] (first compound 0.015 µM, partner dose 0.08 µM)",40.5,58.7,198,77.3,105,22.2,447,52.1,65.9,171,33.9,130,109,139,–,–,–
"CC(=O)O[C@@]12CO[C@@H]1C[C@H](O)[C@@]1(C)C(=O)[C@H](O)C3=C(C)[C@@H](OC(=O)[C@H](O)[C@@H](NC(=O)OC(C)(C)C)c4ccccc4)C[C@@](O)([C@@H](OC(=O)c4ccccc4)[C@H]21)C3(C)C [Docetaxel] + O=C(O)c1ccc2c(c1)nc(Nc1cccc(Cl)c1)c1ccncc12 [CX4945] (first compound 0.0001 µM, partner dose 0.4 µM)",98,2300,88.7,123,214,411,321,545,356,306,375,262,74.7,384,3220,239,194
"CN(c1ncccc1CNc1nc(Nc2ccc3c(c2)CC(=O)N3)ncc1C(F)(F)F)S(C)(=O)=O + COCC[n+]1c2c(n(Cc3cnccn3)c1C)C(=O)c1ccccc1C2=O [YM155] (first compound 0.08 µM, partner dose 0.0004 µM)",53.9,114,98.8,281,111,107,109,85.9,86.7,119,48.5,182,135,148,163,108,167
"CCN(CC)CCNC(=O)c1c(C)[nH]c(/C=C2\C(=O)Nc3ccc(F)cc32)c1C [sunitinib] + O=C(Nc1ccccc1)c1cc([N+](=O)[O-])ccc1Cl [GW9662] (first compound 0.4 µM, partner dose 2 µM)",33.6,88.3,129,69.4,82.7,93,68.7,138,163,76.3,66.6,88.4,141,87.9,–,–,–
"CS(=O)(=O)c1ccc(C(=O)Nc2ccc(Cl)c(-c3ccccn3)c2)c(Cl)c1 [vismodegib] + CCCS(=O)(=O)Nc1ccc(F)c(C(=O)c2c[nH]c3ncc(Cl)cc23)c1F [PLX4720] (first compound 1 µM, partner dose 0.08 µM)",29.7,232,87,59.9,129,102,127,51,80,75.8,142,65.1,67.4,93.9,475,76.1,77.4
"COc1ccc(C2=N[C@@H](c3ccc(Cl)cc3)[C@@H](c3ccc(Cl)cc3)N2C(=O)N2CCNC(=O)C2)c(OC(C)C)c1 [Nutlin-3] + CCCCCCCCCCCC1=C(O)C(=O)C=C(O)C1=O [Embelin] (first compound 0.1 µM, partner dose 1.2 µM)",23.2,93.1,93.5,42.3,76.3,15.8,88.3,100,23.2,49,79,122,72.9,54.7,–,–,–
"CCCCCCCCc1ccc(CCC(N)(CO)CO)cc1 [fingolimod] + O=c1cc(-c2cccc3c2Sc2ccccc2S3)oc(N2CCOCC2)c1 [KU55933] (first compound 2 µM, partner dose 1 µM)",31.1,222,123,139,110,19.5,115,58.8,101,55.6,57.9,92.1,149,186,–,–,–
"Cn1cnc2c(F)c(Nc3ccc(Br)cc3Cl)c(C(=O)NOCCO)cc21 [selumetinib] + Cc1cc([N+](=O)[O-])ccc1NS(=O)(=O)c1cc(Cl)ccc1Cl [FH535] (first compound 0.015 µM, partner dose 1 µM)",32.9,79.9,194,424,120,314,523,163,71.8,206,241,206,175,102,–,–,–
"Cn1cnc2c(F)c(Nc3ccc(Br)cc3Cl)c(C(=O)NOCCO)cc21 [selumetinib] + C=C(c1ccc(C(=O)O)cc1)c1cc2c(cc1C)C(C)(C)CCC2(C)C [Bexarotene] (first compound 0.015 µM, partner dose 2 µM)",104,68.5,92.1,85.9,79.4,104,135,119,60.2,68.4,156,141,46.2,66.4,115,341,92.5
